Values from PubChem BioAssay AID493246 (Drosophila RNAi Screening Center, 2011)
In all, the deposit lists about 21,000 reagents; shown is an unselected part of those with a known target gene and a result. Of all reagents, 429 (2%) were called active. 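Values are raw and not normalised between plates; calls rest on per-plate z-scores that were not deposited.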 A number with no mark means an inactive call. The numbers tell different reagents against one gene apart. A plus sign joins genes that one reagent is predicted to hit. Not given: the amount of reagent, the time to read-out.

Aim: 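Genome-wide search for dsRNAs that reduce cell number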 (primary screen)
Cell system: Drosophila Kc and S2R+ cells
Reagents: long dsRNA against Drosophila genes
Detection: 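Raw, unnormalised count of remaining cells in each well; per-plate z-scores of cell number underlie the calls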
Direction: Kc cell number and S2R+ cell number: higher = more cells remaining
Active means: 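Active when the per-plate z-score of cell number is 3 or more in the direction of fewer cells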

gene knocked down | reagent no. | Kc cell number, rep 1 | Kc cell number, rep 2 | S2R+ cell number, rep 1 | S2R+ cell number, rep 2
CG17776 | 1 | 1.56e6 | 1.55e6 | 1.07e6 | 1.25e6
Acat2 (Acetyl-CoA acetyltransferase 2) | 1 | 1.61e6 | 1.48e6 | 9.93e5 | 1.31e6
U2af50 (U2 small nuclear riboprotein auxiliary factor 50) | 1 | 4.93e5 | – | 8.62e5 | –
DIP-epsilon (Dpr-interacting protein epsilon) | 1 | 1.69e6 | 1.71e6 | 1.12e6 | 1.27e6
DIP-epsilon (Dpr-interacting protein epsilon) | 2 | 1.59e6 | 1.81e6 | 1.22e6 | 1.32e6
Nlg2 (Neuroligin 2) | 1 | 1.50e6 | 1.36e6 | 1.13e6 | 1.23e6
CG3500 | 1 | 1.57e6 | 1.61e6 | 1.18e6 | 1.28e6
BaraA1 + BaraA2 | 1 | 1.47e6 | 1.43e6 | 9.74e5 | 1.12e6
Drsl6 (Drosomycin-like 6) | 1 | 1.36e6 | 1.33e6 | 1.05e6 | 1.20e6
CG8132 | 1 | 1.47e6 | 1.63e6 | 1.23e6 | 1.38e6
a (arc) | 1 | 1.23e6 | 1.33e6 | 8.46e5 | 3.40e5
a (arc) | 2 | 1.55e6 | 1.72e6 | 1.32e6 | 3.51e5
snoRNA:Me28S-C3420b + RpS11 | 1 | 1.62e6 | 1.66e6 | 1.20e6 | 1.35e6
Tim23 (Translocase of inner mitochondrial membrane 23) | 1 | 1.36e6 | 1.49e6 | 1.04e6 | 1.13e6
Arp1 (Actin-related protein 1) | 1 | 1.55e6 | 1.72e6 | 1.31e6 | 1.42e6
conv (convoluted) | 1 | 1.53e6 | 1.47e6 | 1.19e6 | 1.24e6
CG15831 (retired record) | 1 | 1.56e6 | 1.61e6 | 1.12e6 | 1.22e6
CG42382 | 1 | 1.41e6 | 1.53e6 | 1.29e6 | 1.29e6
chn (charlatan) | 1 | 9.80e5 | 1.23e6 | 1.24e6 | 1.27e6
Naa30A (N(alpha)-acetyltransferase 30 A) | 1 | 3.75e5 | – | 5.62e5 | –
CG12768 | 1 | 1.47e6 | 1.77e6 | 1.09e6 | 1.24e6
CG13681 (retired record) | 1 | 1.45e6 | 1.48e6 | 1.12e6 | 1.29e6
CG13681 (retired record) | 2 | 1.52e6 | 1.56e6 | 1.14e6 | 1.34e6
CG13681 (retired record) | 3 | 1.32e6 | 1.22e6 | 1.27e6 | 1.24e6
CG13681 (retired record) | 4 | 1.32e6 | 1.50e6 | 1.24e6 | 1.28e6
CG13681 (retired record) | 5 | 1.43e6 | 1.37e6 | 1.26e6 | 1.32e6
CG13681 (retired record) | 6 | 1.47e6 | 1.60e6 | 1.38e6 | 1.36e6

Laid out differently: 3 of the entries above
CG15831 (retired record)
- Kc cell number, rep 1: 1.56e6
- Kc cell number, rep 2: 1.61e6
- S2R+ cell number, rep 1: 1.12e6
- S2R+ cell number, rep 2: 1.22e6

CG42382
- Kc cell number, rep 1: 1.41e6
- Kc cell number, rep 2: 1.53e6
- S2R+ cell number, rep 1: 1.29e6
- S2R+ cell number, rep 2: 1.29e6

chn (charlatan)
- Kc cell number, rep 1: 9.80e5
- Kc cell number, rep 2: 1.23e6
- S2R+ cell number, rep 1: 1.24e6
- S2R+ cell number, rep 2: 1.27e6
